PubChem BioAssay AID602196, INSERM – 2012
Screen: 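Modifiers of cisplatin sensitivity in A549 cells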. System: human A549 lung cancer cells. Reagents: siRNA pair against human genes. Time to read-out: 48 h transfection before cisplatin; time from cisplatin to read-out not stated. Treatment: cisplatin at a dose killing half of control-siRNA cells; exact dose and duration not given. Measurement: 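Shift in cisplatin death relative to control siRNA, from -50 (all cells die) to +50 (no cells die); siRNAs harmful on their own scored 0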. Reading the numbers: two-siRNA summed score (-2 to +2): higher = both siRNAs protect from cisplatin killing; -2 means both sensitise. Hit rule: 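siRNAs harmful alone (LDH or WST-1) get 0; others get +1 for less and -1 for more cisplatin killing; genes are active when the two siRNAs give the same sign, summing to ±2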. Calls: active = both siRNAs shift cisplatin killing the same way; inactive = no consistent shift, or siRNA harmful alone.
Shown is a random part of about 23,000 reagents. Of all reagents, 455 (2%) got an active call. 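Active includes both protection and sensitisation; some change values fall well beyond the stated -50 to +50 range.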 Entries without a mark were called inactive. Further read-outs or replicates are left out here. Reagent sequences are not shown. Not stated in the record: the amount of reagent.

| two-siRNA summed score (-2 to +2) | Target gene |
| --- | --- |
| 1 | SMIM32 (small integral membrane protein 32) |
| 0 | TMEM160 (transmembrane protein 160) |
| 0 | EXOC2 (exocyst complex component 2) |
| 0 | CSTA (cystatin A) |
| 0 | H4C4 (H4 clustered histone 4) |
| 1 | LOC387716 |
| 0 | NENF (neudesin neurotrophic factor) |
| 0 | GLUD2 (glutamate dehydrogenase 2) |
| 0 | CCT6B (chaperonin containing TCP1 subunit 6B) |
| 0 | NFKB2 (nuclear factor kappa B subunit 2) |
| 0 | LRFN5 |
| 1 | TLX2 (T cell leukemia homeobox 2) |
| 0 | LOC442040 |
| -1 | GRK6 (G protein-coupled receptor kinase 6) |
| 0 | CAPN5 (calpain 5) |
| 0 | GPRC5A (G protein-coupled receptor class C group 5 member A) |
| 0 | EFHD1 (EF-hand domain family member D1) |
| 1 | S100A8 (S100 calcium binding protein A8) |
| 0 | ZWILCH (zwilch kinetochore protein) |
| 0 | CLEC12A (C-type lectin domain family 12 member A) |

3 of these entries in another layout:
SMIM32 (small integral membrane protein 32) → two-siRNA summed score (-2 to +2): 1
TMEM160 (transmembrane protein 160) → two-siRNA summed score (-2 to +2): 0
EXOC2 (exocyst complex component 2) → two-siRNA summed score (-2 to +2): 0

Further records follow:
| two-siRNA summed score (-2 to +2) | Target gene |
| --- | --- |
| 1 | DDX60 (DExD/H-box helicase 60) |
| 1 | KIAA0408 |
| 0 | TCEA1 (transcription elongation factor A1) |
| -1 | TXNDC9P1 (TXNDC9 pseudogene 1) |
| 0 | SCFD1 (sec1 family domain containing 1) |
| 1 | CBLN1 (cerebellin 1 precursor) |
| -1 | PLCH1 (phospholipase C eta 1) |
| 0 | NKRF (NFKB repressing factor) |
| 0 | LNX2 (ligand of numb-protein X 2) |
| 1 | ILDR2 (immunoglobulin like domain containing receptor 2) |
| 0 | KRTAP10-4 (keratin associated protein 10-4) |
| 0 | TXNDC8 (thioredoxin domain containing 8) |
| 0 | HIBCH (3-hydroxyisobutyryl-CoA hydrolase) |
| 0 | LOC441369 |
| 0 | LOC391717 |
| 0 | ZMAT4 (zinc finger matrin-type 4) |
| -1 | LOC391701 |
| 0 | MGST2 (microsomal glutathione S-transferase 2) |
| 1 | CARD9 (caspase recruitment domain family member 9) |
